Laboratory results from patent US20200031785A1, “METHODS FOR TREATING CHRONIC PAIN AND OPIOID DEPENDENCE USING ADENYLYL CYCLASE INHIBITORS” (Purdue Research Foundation, priority 2017, published 2020).
For part of its entries the source gives two or more results. They are shown here; other results are not. The source may hold further records. The values listed for one entry differ for a reason that is not stated; dose, time, organism, isomer or construct need not be as stated for each record.

The chains behind the UniProt entries cited, without tags or fusion partners.
UniProt Q08828, whole entry: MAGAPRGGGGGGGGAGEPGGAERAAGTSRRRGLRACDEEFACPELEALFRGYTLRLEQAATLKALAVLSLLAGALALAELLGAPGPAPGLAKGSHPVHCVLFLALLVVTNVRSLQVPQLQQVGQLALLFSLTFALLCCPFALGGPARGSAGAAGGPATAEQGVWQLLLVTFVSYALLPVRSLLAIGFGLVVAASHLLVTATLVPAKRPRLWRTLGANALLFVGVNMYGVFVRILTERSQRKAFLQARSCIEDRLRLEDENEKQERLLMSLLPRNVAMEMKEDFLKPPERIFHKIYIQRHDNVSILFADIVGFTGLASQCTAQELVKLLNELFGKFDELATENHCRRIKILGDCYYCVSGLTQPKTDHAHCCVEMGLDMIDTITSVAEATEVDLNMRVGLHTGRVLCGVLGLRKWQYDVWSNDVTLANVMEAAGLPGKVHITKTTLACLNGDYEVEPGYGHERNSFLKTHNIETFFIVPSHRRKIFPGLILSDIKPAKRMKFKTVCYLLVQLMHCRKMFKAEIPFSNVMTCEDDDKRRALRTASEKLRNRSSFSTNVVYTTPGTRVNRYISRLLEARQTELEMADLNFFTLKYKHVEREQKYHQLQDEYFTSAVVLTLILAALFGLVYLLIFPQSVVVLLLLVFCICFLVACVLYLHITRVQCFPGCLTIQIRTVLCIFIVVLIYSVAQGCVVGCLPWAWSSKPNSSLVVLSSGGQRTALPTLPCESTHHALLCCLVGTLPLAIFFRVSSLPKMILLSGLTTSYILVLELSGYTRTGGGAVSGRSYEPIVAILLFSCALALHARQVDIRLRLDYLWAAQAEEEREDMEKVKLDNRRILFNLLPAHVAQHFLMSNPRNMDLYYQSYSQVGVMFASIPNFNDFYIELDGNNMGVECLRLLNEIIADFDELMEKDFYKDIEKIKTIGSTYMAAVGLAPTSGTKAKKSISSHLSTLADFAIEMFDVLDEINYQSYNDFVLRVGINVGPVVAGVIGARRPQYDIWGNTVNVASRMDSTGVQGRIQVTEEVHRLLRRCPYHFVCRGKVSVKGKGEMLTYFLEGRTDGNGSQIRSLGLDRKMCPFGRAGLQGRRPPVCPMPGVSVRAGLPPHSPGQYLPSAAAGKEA

Target: hAC1 (Homo sapiens, UniProt Q08828)
Experiment: Cyclic AMP accumulation in HEK cells stably expressing AC1, stimulated with A23187 (HTRF)
Details: AC8 IC50/AC1 IC50; in the absence of AC8 IC50, estimate based on IC50 ≥30 μM

Selectivity AC1 vs AC8: at least 60 fold and >60-fold
SMILES: CCc1cc(=O)[nH]c(-n2nc(C)cc2NC(=O)c2ccccc2F)n1 [F2215-0213]
